Consider 16 compounds from PubChem BioAssay AID1487 (National Center for Advancing Translational Sciences (NCATS), 2009).

Structures are written as SMILES. The list shows a part of the results. Shown are side measurements of this screen, not its main read-out; they come without a call. The list favours compounds with an active or inconclusive main result. Potencies come from curve fits of mixed quality, noted in brackets.

A short description of the test: qHTS Assay for Modulators of Lamin A Splicing. The conditions noted are these: HeLa LMNA splicing GFP/RFP minigene ratio, 48 h. Put shortly: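 Read-out is the ratio of GFP to DsRed2 object intensity, acquired by 488 nm laser-scanning cytometry on HeLa lamin A-EGFP minigene reporter cells. Compound incubation 48 hrs at 37 °C in Opti-MEM with 2% FBS; DMSO 0.5% final.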

Setting [1] is: measured here: RFP viability control channel.
Setting [2] is: measured here: GFP splicing reporter channel.

As for `Cc1cc(C)nc(SCc2csc(-c3ccccc3)n2)n1`, the AC50 under setting [1] is 35.5 µM [rising, partial curve, poor fit].
For `CC(=O)N1CCN(S(=O)(=O)c2cccc(C(=O)Nc3ccccc3N3CCOCC3)c2)CC1`, the half-maximal activity concentration (AC50) under setting [2] was 0.0501 µM [falling, full curve, poor fit].
`CCOC(=O)c1csc(NC(=O)COc2ccc(Cl)cc2Cl)n1`: the half-maximal activity concentration (AC50) under setting [1] is 35.5 µM [rising, single point].
On to `Cc1ccc(C2CC(=O)Nc3c2ccc2ccccc32)cc1[N+](=O)[O-]` (configuration not stated), for which the AC50 under setting [2] was 35.5 µM [rising, single point] and the AC50 under setting [1] was 35.5 µM [rising, single point].
Take `CC1CN(c2ccc(C(F)(F)F)cc2[N+](=O)[O-])CCN1S(C)(=O)=O` (configuration not stated): the AC50 under setting [1] is 11.2 µM [rising, single point].
`Cc1ccccc1NC(=S)NCCC(c1ccccc1)c1ccccc1`: the AC50 by setting is: under setting [2], 35.5 µM [falling, single point]; under setting [1], 12.6 µM [falling, partial curve].
Consider `C=C(C)COc1ccc(-c2nc(N)ncc2Oc2ccccc2OCC)c(O)c1`, for which the half-maximal activity concentration (AC50) under setting [2] is 15.8 µM [falling, single point] and the AC50 under setting [1] was 12.6 µM [falling, single point].
As to `S=C(Nc1ccc(Cl)cc1)c1nc2ccccc2[nH]1`, the AC50 under setting [1] is 10 µM [rising, partial curve, poor fit].
For `CC(C)CC(=O)O/N=C1\C(=O)N(Cc2ccc(Cl)cc2)c2ccc([N+](=O)[O-])cc21`, the concentration at half-maximal activity (AC50) was 35.5 µM [falling, single point] under setting [2] and 35.5 µM [falling, single point] under setting [1].
Consider `CCOC(=O)N1CCN(C(=O)c2cccc(F)c2)CC1`, for which the AC50 is, setting by setting: under setting [2], 3.98 µM [falling, single point]; under setting [1], 5.62 µM [falling, single point].
In the case of `Cc1cc(C)cc(Oc2nc(-c3ccccc3)cc(C)c2S(C)(=O)=O)c1`, under setting [2], the AC50 is 20 µM [rising, partial curve, poor fit].
As for `Cc1cc(C)cc(N(CCC(=O)Nc2nnc(C3CC3)s2)S(=O)(=O)c2ccc(Cl)cc2)c1`, the AC50 under setting [1] was 11.2 µM [rising, partial curve, poor fit].
Regarding `Cc1cc(C(F)(F)F)nn1Cc1n[nH]c(=S)n1-c1ccc(F)cc1`, under setting [1], the half-maximal activity concentration (AC50) is 2.51 µM [falling, partial curve, poor fit].
As to `O=C(COC(=O)C1=COCCO1)NC1CCCCCCC1`, the AC50 under setting [1] is 0.708 µM [rising, partial curve, poor fit].
`O=[N+]([O-])c1cccc2c(Cl)ccnc12`: under setting [2], the AC50 is 35.5 µM [rising, single point].
In the case of `Cc1ccc(C)c(NC(=O)C(=O)NCCc2csc(-c3cccc(F)c3)n2)c1`, the AC50 is, setting by setting: under setting [2], 0.00891 µM [falling, full curve, poor fit]; under setting [1], 0.00501 µM [falling, full curve].
